Test results published in publication PMC12040169 (PLOS Biology, 2025).
The list shows a part of the results.

tested on: T1, CTL2-GFP (C. trachomatis L2/434/Bu, GFP-expressing); set-up: species or system HeLa; Intracellular C. trachomatis growth in HeLa cells, bulk GFP fluorescence relative to DMSO; details: bulk GFP, single well; 28.5 h, 10 µM; inhibitor
T1 construct: L2/434/Bu, GFP-expressing

| Compound | % of control remaining [%] |
| --- | --- |
| CCC(CC)(CC(=O)Nc1ccc(N2CCCC2=O)c(C)c1)C(=O)O [CBK297881] | 114.184 |
| Cc1ccc(N2CC(C(=O)NCCc3ccc(S(N)(=O)=O)cc3)CC2=O)cc1 (stereo not shown) [CBK267531] | 151.189 |
| Cc1c(CN(Cc2ccc(F)cc2)CC2CCCO2)cnn1C (stereo not shown) [CBK282589] | 108.662 |
| N/C(=N/c1ccccn1)C(F)(F)F [CBK021049] | 112.782 |
| CS(=O)(=O)c1ccc(C(=O)Nc2nccs2)cc1 [CBK255213] | 124.605 |
| O=C(c1ccc(OC(F)F)cc1)N1CCCCC1 [CBK074223] | 125.659 |
| O=C(NCc1ccccc1Cl)C1CCCN(S(=O)(=O)c2ccccc2)C1 (stereo not shown) [CBK269086] | 146.576 |
| O=C(O)c1ccc(Oc2ccc([N+](=O)[O-])cc2)cc1C(=O)O [CBK260961] | 100 |
| O=C(c1cccnc1)N1CCN(CC2(c3ccccc3)CC2)CC1 [CBK282906] | 110.022 |
| O=C1CCCN1CCCNC(=O)N1CCN(Cc2ccccc2)CC1 [CBK155658] | 93.5858 |
| NC(=O)C(=O)Nc1nc(-c2ccccc2)cs1 [CBK263005] | 100 |
| Cc1c(C(=O)N2CCNC(=O)C2C(C)C)cnn1-c1ccc(Br)cc1 (stereo not shown) [CBK306472] | 70.2528 |
| O=C(O)c1ccccc1NS(=O)(=O)Cc1ccccc1[N+](=O)[O-] [CBK042373] | 132.91 |
| CCOC(=O)c1c(NC(=O)CC2Nc3ccccc3NC2=O)sc(C)c1C (stereo not shown) [CBK263381] | 121.12 |
| CCc1nc2c(OCC=C(C)C)cccn2c1N(C)C(=O)c1cccc(OC)c1 [CBK147448] | 110.857 |
| Cc1cccc(Cn2nc(C)c(NC(=O)COc3ccccc3)c2C)c1 [CBK270007] | 125.409 |
| Cc1c(NC(=O)CCCC(=O)O)cccc1C(=O)O [CBK265525] | 100 |
| Cc1cc(Cl)c(S(=O)(=O)N(C)C)cc1OCC(=O)Nc1ccccc1 [CBK269705] | 86.0723 |
| Cn1cc(N2CCN(C(=O)CCOc3ccccc3)CC2)cn1 [CBK305473] | 82.8283 |
| Clc1cccc(-c2nc(NCCCN3CCOCC3)c3ccccc3n2)c1 [CBK267309] | 163.912 |
| CCCS(=O)(=O)N1CCCC(Cc2ccccc2C)(C(=O)OCC)C1 (stereo not shown) [CBK307502] | 92.0754 |
| CCc1cc(-c2n[nH]cc2-c2nc(C)cs2)c(O)cc1OC [CBK287934] | 13.626 |
| CCNS(=O)(=O)c1ccc(NS(=O)(=O)c2cc(C(=O)O)ccc2C)cc1 [CBK295296] | 137.003 |
| Cc1ccc(NC(=O)Nc2ccc3cc(Br)cnc3n2)c(C)c1 [CBK063269] | 145.714 |
| N#Cc1ccc(NCC(=O)Nc2ncn(Cc3cccnc3)n2)cc1 [CBK306343] | 134.776 |
| CC(CNC(=O)CCc1cn(C)c2ccccc12)N1CCOCC1 (stereo not shown) [CBK281996] | 162 |
| Nc1ncc(-c2ccco2)nc1N1CCOCC1 [CBK063456] | 113.401 |

| Compound | % of control remaining [%] |
| --- | --- |
| O=C(Cc1ccc(F)cc1)NCc1nnc(-c2cccs2)o1 [CBK284640] | 166.702 |
| COCCC(=O)Nc1ccc(N2CCNCC2)nc1 [CBK004749T] | 98.829 |
| O=C(Cc1ccc(Cl)c(Cl)c1)N1CCCC2(CCN(Cc3ccccc3)C2)C1 (stereo not shown) [CBK136872] | 134.953 |
| O=C1NCC2(CCN(C(=O)C3CC3)CC2)Oc2ccccc21 [CBK282918] | 114.613 |
| CC(C)C(=O)N1CC2(CCN(CCS(=O)(=O)c3ccccc3)CC2)c2ccccc21 [CBK126726] | 86.78 |
| COCCNc1cc(-c2ccco2)ncn1 [CBK090796] | 141.382 |
| COc1ccc(-c2nc(-c3ccncc3)ncc2C(=O)NC2CCCCC2)cc1 [CBK291111] | 141.482 |
| O=C(NC(=S)Nc1cccc(Cl)c1)c1cncc(Br)c1 [CBK264618] | 116.409 |
| CC(C)NC(=O)N1CCN2C(=O)c3cc(-c4ccc(Cl)cc4)ccc3NC(=O)[C@H]2C1 [CBK289596] | 118.274 |
| CC(C)S(=O)(=O)n1ccn(-c2ccc(N(C)C)cc2)c1=O [CBK106600] | 124.981 |
| FC(F)(F)c1cccnc1Sc1nc[nH]n1 [CBK115213] | 97.6116 |
| CCc1cc(Br)ccc1S(=O)(=O)NCCc1cccs1 [CBK045033] | 76.1247 |
| O=C(Cn1cccc2cc(C3CCCNC3)nc1-2)N1CCCC1 (stereo not shown) [CBK285086] | 125.937 |
| CSc1nsc(SCC(=O)OC2CC3CCC2(C)C3(C)C)n1 (stereo not shown) [CBK268941] | 137.201 |
| CCOc1ccc(C(=O)C2=C(O)C(=O)N(CCN(C)C)C2c2ccc(N(C)C)cc2)c(C)c1 (stereo not shown) [CBK264603] | 126.221 |
| CCN1CCC2(CC1)NC(=O)Cc1cc(OC)c(OC)c(OC)c12 [CBK039868] | 110.696 |
| CN(CCO)C(=O)CCn1c(C(F)F)cc2cccnc21 [CBK282805] | 126.15 |
| CC(=O)NCC1CN(c2ccc3c(c2)CCN3C(=O)OC(C)(C)C)C(=O)O1 (stereo not shown) [CBK012600] | 158.959 |
| CN(C(=O)C1CCN(S(=O)(=O)c2cn(C)cn2)CC1)C(c1ccc(F)cc1)c1ccccn1 (stereo not shown) [CBK060229] | 162.653 |
| O=C(Nc1cccc2cccnc12)c1ccc(Cl)c(Cl)c1 [CBK261318] | 122.132 |
| COC(=O)COc1ccc(C2Nc3c(Cl)ccc(C(=O)O)c3C3C=CCC32)cc1 (stereo not shown) [CBK268961] | 108.069 |
| COC(=O)C1=C(C(=O)OC)SC(=C2C(=S)C(C)(C)N(C(=O)c3ccc4ccccc4c3)c3cc(C)ccc32)S1 [CBK261622] | 93.8491 |
| COC(=O)c1ccc(S(=O)(=O)C(F)(F)F)cc1N [CBK018172] | 107.871 |
| CCN(CC)C(=O)c1[nH]c2ccccc2c1NS(=O)(=O)c1cc(Br)ccc1OC [CBK050113] | 141.848 |
| O=C(COc1ccccc1)N1CCC(c2cccc(Cc3ccccc3F)n2)CC1 [CBK286211] | 105.892 |
| CCC(NC(=O)Nc1cc(N2CCOCC2)ccc1Cl)c1nc(C)no1 (stereo not shown) [CBK306526] | 118.442 |
| O=C(CCCN1C(=O)c2ccccc2C1=O)Oc1ccc(-c2ccccc2)cc1 [CBK267144] | 153.709 |

By substructure, the entries above containing four or more nitrogen atoms

| Compound | % of control remaining [%] |
| --- | --- |
| O=C1CCCN1CCCNC(=O)N1CCN(Cc2ccccc2)CC1 [CBK155658] | 93.5858 |
| Cc1c(C(=O)N2CCNC(=O)C2C(C)C)cnn1-c1ccc(Br)cc1 (stereo not shown) [CBK306472] | 70.2528 |
| Cn1cc(N2CCN(C(=O)CCOc3ccccc3)CC2)cn1 [CBK305473] | 82.8283 |
| Clc1cccc(-c2nc(NCCCN3CCOCC3)c3ccccc3n2)c1 [CBK267309] | 163.912 |
| Cc1ccc(NC(=O)Nc2ccc3cc(Br)cnc3n2)c(C)c1 [CBK063269] | 145.714 |
| N#Cc1ccc(NCC(=O)Nc2ncn(Cc3cccnc3)n2)cc1 [CBK306343] | 134.776 |
| Nc1ncc(-c2ccco2)nc1N1CCOCC1 [CBK063456] | 113.401 |
| COCCC(=O)Nc1ccc(N2CCNCC2)nc1 [CBK004749T] | 98.829 |
| COc1ccc(-c2nc(-c3ccncc3)ncc2C(=O)NC2CCCCC2)cc1 [CBK291111] | 141.482 |
| CC(C)NC(=O)N1CCN2C(=O)c3cc(-c4ccc(Cl)cc4)ccc3NC(=O)[C@H]2C1 [CBK289596] | 118.274 |
| FC(F)(F)c1cccnc1Sc1nc[nH]n1 [CBK115213] | 97.6116 |
| O=C(Cn1cccc2cc(C3CCCNC3)nc1-2)N1CCCC1 (stereo not shown) [CBK285086] | 125.937 |
| CN(C(=O)C1CCN(S(=O)(=O)c2cn(C)cn2)CC1)C(c1ccc(F)cc1)c1ccccn1 (stereo not shown) [CBK060229] | 162.653 |
| CCC(NC(=O)Nc1cc(N2CCOCC2)ccc1Cl)c1nc(C)no1 (stereo not shown) [CBK306526] | 118.442 |

Going on with the list.

| Compound | % of control remaining [%] |
| --- | --- |
| Cn1nccc1NS(=O)(=O)c1cc(C(=O)O)c(Cl)cc1F [CBK062712] | 87.3371 |
| Cc1csc2c(N3CCCC3CC(=O)c3cnn(C)c3)ncnc12 (stereo not shown) [CBK304429] | 102.465 |
| O=C1CC(=O)N(Cc2ccc(F)cc2)C(=O)N1 [CBK291156] | 146.921 |
| Cc1cccn2cc(CNC(=O)C(C)(C)C)nc12 [CBK304348] | 154.933 |
| COc1ccc(-c2cc(N3CCCN(C)CC3)n3nccc3n2)cc1 [CBK037244] | 110.242 |
| C[C@H](NC(=O)N1CCC(c2nc(-c3ccccc3)c3ccccn23)CC1)c1ccccc1 [CBK047086] | 125.599 |
| Cc1ncc([N+](=O)[O-])n1CC(=O)Nc1ccccc1F [CBK269335] | 142.288 |
| CN1CCOc2cc(S(=O)(=O)Nc3cccnc3N3CCOCC3)ccc21 [CBK062299] | 104.785 |
| Cc1cccc(CN2CCC(NC(=O)Cn3cnnn3)CC2)c1 [CBK305649] | 121.406 |
| COc1ccc(F)c(CN(CC(C)(C)CN)C(=O)Nc2c(F)cccc2F)c1 [CBK002405C] | 126.698 |
| c1ccc(CCCN2CCN(Cc3cccc4ccccc34)CC2)cc1 [CBK264237] | 132.19 |
| CN(C)c1ccc(-c2cnc3[nH]c(=O)n(C4CCCC4)c3n2)cc1 [CBK064964] | 122.952 |
| O=C(Nc1ccccc1)c1cccc(S(=O)(=O)NCc2ccncc2)c1 [CBK269980] | 77.891 |
| Cc1nc2ccc(C(=O)O)cc2c2c1CC(CN)O2 (stereo not shown) [CBK286974] | 124.851 |
| c1ccc2c(c1)CCCN2c1ncnc2n[nH]cc12 [CBK287886] | 106.246 |
| C[C@H]1[C@@H]2[C@@H](O)C([C@H](C)C(=O)N3CCCCC3)CC[C@@]2(C)CC[C@@H]1NC(=O)c1cnccn1 (stereo partly shown) [CBK289448] | 104.481 |
| CN1C(=O)CC2(C1=O)C(=O)N(Cc1nc(-c3ccc(Cl)cc3)no1)c1ccc(F)cc12 (stereo not shown) [CBK075442] | 122.137 |
| O=C(c1ccc(O)nc1)N1CCN(Cc2cc(=O)n3ccsc3n2)CC1 [CBK306098] | 102.421 |
| COc1ccccc1N1C(=O)CC(SC(=N)N/N=C(\C)c2ccc(O)cc2)C1=O (stereo not shown) [CBK262766] | 107.5 |
| COc1cc(CNC(=O)NC(=O)C2CCN(CCCc3ccc(Cl)c(Cl)c3)CC2)cc(OC)c1OC [CBK034858] | 165.446 |
| NS(=O)(=O)c1ccc(NC(=O)CCCOc2ccc(Cl)cc2Cl)cc1 [CBK261536] | 100 |
| O=C(CSc1nc(=O)cc(O)[nH]1)N1CCc2ccccc21 [CBK269350] | 178.515 |
| CCCn1c(SCC(=O)NCc2ccc(OC)cc2)n[nH]c1=O [CBK297549] | 148.323 |
| c1ccc2c(-c3cn4ccnc4c(Nc4ccc5cn[nH]c5c4)n3)cccc2c1 [CBK066346] | 133.509 |
| CN1CCN(c2cc(CNC(=O)c3cc(O)nc4ccccc34)ccn2)CC1 [CBK279658] | 141.561 |
